PubChem BioAssay AID1259405 – NCATS | 2018

Test: 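Silenced genes that increase secreted GFP made by CHO cells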 (primary screen)
Cells: Chinese hamster CHO-K1 ovary cells with stable secreted eGFP expression
Reagent: single siRNA against mouse genes, 0.8 pmol siRNA per well (2 µl of 400 nM stock)
Time to read-out: 3 days
Measurement: 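Percent of the per-plate non-targeting control median for intracellular GFP per well by laser scanning cytometry and for cell viability by ATP luminescence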
Scale: GFP, % of control: higher = more GFP per well, higher productivity; viability (ATP), % of control: higher = more viable cells (more ATP)
Active means: 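Called active when intracellular GFP, relative to negative control, is at or above 120%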
Here is a random part of about 50,000 reagents. Of all reagents, about 4,000 (8%) were called active. 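Mouse siRNA library applied to hamster cells; one well for each siRNA.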 A number with no mark means an inactive call.

Knock-down of Uaca [SID363556776] resulted in: GFP, % of control 86.6; viability (ATP), % of control 56.
Depletion of Uaca [SID363563680] came out at: GFP, % of control 96.8; viability (ATP), % of control 50.7.
Against Uaca [SID363587226], the values are GFP, % of control 108; viability (ATP), % of control 112.
Bzw1 [SID363545552] scored GFP, % of control 93.7; viability (ATP), % of control 86.7.
For Bzw1 [SID363549065], the entry reads GFP, % of control 62; viability (ATP), % of control 76.2.
After knock-down of Bzw1 [SID363562871], the record shows GFP, % of control 64.9; viability (ATP), % of control 61.4.
Knock-down of Fam13b [SID363546521] resulted in: GFP, % of control 9.11; viability (ATP), % of control 7.48.
Depletion of Fam13b [SID363548277] resulted in: GFP, % of control 81.9; viability (ATP), % of control 76.6.
Against Fam13b [SID363560455], the values are GFP, % of control 64.6; viability (ATP), % of control 66.9.
With knock-down of Junb [SID363573833] the results were GFP, % of control 99.9; viability (ATP), % of control 105.
Junb [SID363581577] scored GFP, % of control 92.9; viability (ATP), % of control 70.
For Junb [SID363584041], the values are GFP, % of control 91.3; viability (ATP), % of control 103.
Knock-down of Dram1 [SID363540756] resulted in: GFP, % of control 82.4; viability (ATP), % of control 100.
After knock-down of Dram1 [SID363543207] the results were GFP, % of control 93.3; viability (ATP), % of control 85.7.
After knock-down of Dram1 [SID363552700], the screen gave GFP, % of control 38.6; viability (ATP), % of control 64.3.
Silencing of Tk1 [SID363571262] came out at: GFP, % of control 78.9; viability (ATP), % of control 62.2.
After knock-down of Tk1 [SID363571614], the screen gave GFP, % of control 79.7; viability (ATP), % of control 68.8.
Depletion of Tk1 [SID363571966] gave: GFP, % of control 121 (active); viability (ATP), % of control 86.9.
After knock-down of Gng3 [SID363570153], the record shows GFP, % of control 82.5; viability (ATP), % of control 71.
Against Gng3 [SID363576489], the values are GFP, % of control 117; viability (ATP), % of control 81.2.
Gng3 [SID363579657] showed GFP, % of control 71.9; viability (ATP), % of control 68.9.
For Ighg [SID363553864], the values are GFP, % of control 83.2; viability (ATP), % of control 89.2.
Knock-down of Ighg [SID363561821] came out at: GFP, % of control 74.1; viability (ATP), % of control 74.
For Ighg [SID363565559], the values are GFP, % of control 37.1; viability (ATP), % of control 46.1.

Reformatted: results already given.
Bzw1 [SID363562871]
- GFP, % of control: 64.9
- viability (ATP), % of control: 61.4

Fam13b [SID363546521]
- GFP, % of control: 9.11
- viability (ATP), % of control: 7.48

Fam13b [SID363548277]
- GFP, % of control: 81.9
- viability (ATP), % of control: 76.6

Fam13b [SID363560455]
- GFP, % of control: 64.6
- viability (ATP), % of control: 66.9

Junb [SID363573833]
- GFP, % of control: 99.9
- viability (ATP), % of control: 105

The listing continues.
After knock-down of Phospho2 [SID363543395] the results were GFP, % of control 121 (active); viability (ATP), % of control 81.3.
Silencing of Phospho2 [SID363552888] came out at: GFP, % of control 57.9; viability (ATP), % of control 65.5.
Phospho2 [SID363558736] gave GFP, % of control 62.1; viability (ATP), % of control 81.1.
With knock-down of Or7g28 [SID363554521] the results were GFP, % of control 78.4; viability (ATP), % of control 75.6.
Knock-down of Or7g28 [SID363567968] gave: GFP, % of control 66.8; viability (ATP), % of control 53.8.
Against Or7g28 [SID363586027] the deposit lists GFP, % of control 67.4; viability (ATP), % of control 77.7.
Knock-down of Aasdh [SID363572652] resulted in: GFP, % of control 93.6; viability (ATP), % of control 65.6.
With knock-down of Aasdh [SID363577932], the record shows GFP, % of control 108; viability (ATP), % of control 89.4.
Against Aasdh [SID363582156], the values are GFP, % of control 91.1; viability (ATP), % of control 102.
After knock-down of Tceal9 [SID363541134] the results were GFP, % of control 57.5; viability (ATP), % of control 76.1.
With knock-down of Tceal9 [SID363555761] the results were GFP, % of control 64.7; viability (ATP), % of control 63.2.
Silencing of Tceal9 [SID363566050] gave: GFP, % of control 81.4; viability (ATP), % of control 63.7.
Ercc8 [SID363550142] gave GFP, % of control 58.4; viability (ATP), % of control 54.6.
Depletion of Ercc8 [SID363564651] gave: GFP, % of control 149 (active); viability (ATP), % of control 97.8.
After knock-down of Ercc8 [SID363588196] the results were GFP, % of control 113; viability (ATP), % of control 103.
Utp18 [SID363556647] gave GFP, % of control 48.1; viability (ATP), % of control 46.6.
After knock-down of Utp18 [SID363563551], the record shows GFP, % of control 97.4; viability (ATP), % of control 88.7.
For Utp18 [SID363587097] the deposit lists GFP, % of control 84.4; viability (ATP), % of control 86.8.
